# In US20240165226A1, “COMBINATION TREATMENT OF CD38-EXPRESSING TUMORS” (GENMAB A/S, priority 2006, published 2024):
# System: frozen human tissue
# Test: Immunohistochemistry on human tissues
# Format: binding
# Conditions: liver endothelium
molecule,measurement,value
"-024: human monoclonal IgG1 anti-CD38 antibody, VL region SEQ ID No:22 and VH region SEQ ID No:27 (antibody, listed as Homo sapiens, V domains shown) VH: EVQLVQSGAEVKKPGESLKISCKGSGYSFSNYWIGWVRQMPGKGLEWMGIIYPHDSDARYSPSFQGQVTFSADKSISTAYLQWSSLKASDTAMYYCARHVGWGSRYWYFDLWGRGTLVTVSS VL: EIVLTQSPATLSLSPGERATLSCRASQSVSSYLAWYQQKPGQAPGLLIYDASNRASGIPARFSGSGSGTDFTLTISSLEPEDFAVYYCQQRSNWPLTFGGGTKVEIK",staining of endothelial cells,No staining
